Test results: article doi:10.1101/2025.06.08.658535
Where two headings read alike, the source gives them in different places. These are yes or no findings as the source states them, for the method shown. Binding seen in cells or lysates may run through a third protein. Tags and fused reporters may be left off the sequences shown.

Chains of the proteins cited; added tags and fusions are not shown. Lines headed by an entry give the natural chain unless they say otherwise; changes in a name come on top.
UniProt Q96SW2: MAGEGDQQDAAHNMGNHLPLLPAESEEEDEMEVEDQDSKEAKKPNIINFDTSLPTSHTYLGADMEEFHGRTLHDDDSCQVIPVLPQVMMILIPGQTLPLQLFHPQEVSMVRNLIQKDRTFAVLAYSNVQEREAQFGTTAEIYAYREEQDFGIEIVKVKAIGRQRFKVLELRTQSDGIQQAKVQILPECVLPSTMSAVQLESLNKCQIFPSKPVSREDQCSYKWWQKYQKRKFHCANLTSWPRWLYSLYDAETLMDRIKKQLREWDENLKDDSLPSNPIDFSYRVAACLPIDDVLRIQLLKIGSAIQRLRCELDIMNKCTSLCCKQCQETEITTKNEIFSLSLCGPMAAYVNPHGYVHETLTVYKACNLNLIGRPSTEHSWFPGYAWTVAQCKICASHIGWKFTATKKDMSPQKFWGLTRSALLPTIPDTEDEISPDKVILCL

Columns and labels:
[1] = target: HisCRBN/HisDDB1 purified protein (UniProt Q96SW2); assay: FRET or BRET
[2] = target: HisCRBN/HisDDB1 purified protein (UniProt Q96SW2); assay: FRET or BRET; remark: listed apart in the source

B1: nLuc-VAV1 full length R796A (protein, UniProt P15498 1-845)
chain: MELWRQCTHWLIQCRVLPPSHRVTWDGAQVCELAQALRDGVLLCQLLNNLLPHAINLREVNLRPQMSQFLCLKNIRTFLSTCCEKFGLKRSELFEAFDLFDVQDFGKVIYTLSALSWTPIAQNRGIMPFPTEEESVGDEDIYSGLSDQIDDTVEEDEDLYDCVENEEAEGDEIYEDLMRSEPVSMPPKMTEYDKRCCCLREIQQTEEKYTDTLGSIQQHFLKPLQRFLKPQDIEIIFINIEDLLRVHTHFLKEMKEALGTPGAANLYQVFIKYKERFLVYGRYCSQVESASKHLDRVAAAREDVQMKLEECSQRANNGRFTLRDLLMVPMQRVLKYHLLLQELVKHTQEAMEKENLRLALDAMRDLAQCVNEVKRDNETLRQITNFQLSIENLDQSLAHYGRPKIDGELKITSVERRSKMDRYAFLLDKALLICKRRGDSYDLKDFVNLHSFQVRDDSSGDRDNKKWSHMFLLIEDQGAQGYELFFKTRELKKKWMEQFEMAISNIYPENATANGHDFQMFSFEETTSCKACQMLLRGTFYQGYRCHRCRASAHKECLGRVPPCGRHGQDFPGTMKKDKLHRRAQDKKRNELGLPKMEVFQEYYGLPPPPGAIGPFLRLNPGDIVELTKAEAEQNWWEGRNTSTNEIGWFPCNRVKPYVHGPPQDLSVHLWYAGPMERAGAESILANRSDGTFLVRQRVKDAAEFAISIKYNVEVKHIKIMTAEGLYRITEKKAFRGLTELVEFYQQNSLKDCFKSLDTTLQFPFKEPEKRTISRPAVGSTKYFGTAKARYDFCAADRSELSLKEGDIIKILNKKGQQGWWRGEIYGRVGWFPANYVEEDYSEYC
- binding [1]: no binding
- binding [2]: no binding
